The values below are quoted from earlier work in PMC10828645 (Heliyon, 2024).

For series [1] the following is noted: marketed drugs; ref [1],[7]; cited from earlier work.
The conditions of series [2]: mouse, in vivo; cited from earlier work.

`CN1CC[C@]23c4c5ccc(O)c4O[C@H]2[C@@H](O)C=C[C@H]3[C@H]1C5` [Morphine]: the “fu,b” value in series [1] is 0.500. Also, the “Kp,uu,brain” value in series [2] is reported as 0.72.
On to `CN1C(=O)CN=C(c2ccccc2)c2cc(Cl)ccc21` [Diazepam], for which the “fu,b” value in series [1] is on record as 0.050. In addition, the “Kp,brain” value in series [2] was 2.00.
